Test results from the supplement of paper PMC6411743.
± gives the standard deviation of the averaged measurements. This is a selection; strong and weak results do not stand in their true shares.

Experiments:
Assay in all cases: NP40-soluble protein abundance relative to vehicle (solubility fold change) (ratio); higher = more soluble protein in presence of ATP
CENPB = biological target: T1, CENPB (UniProt P07199)
T1 sequence (whole entry): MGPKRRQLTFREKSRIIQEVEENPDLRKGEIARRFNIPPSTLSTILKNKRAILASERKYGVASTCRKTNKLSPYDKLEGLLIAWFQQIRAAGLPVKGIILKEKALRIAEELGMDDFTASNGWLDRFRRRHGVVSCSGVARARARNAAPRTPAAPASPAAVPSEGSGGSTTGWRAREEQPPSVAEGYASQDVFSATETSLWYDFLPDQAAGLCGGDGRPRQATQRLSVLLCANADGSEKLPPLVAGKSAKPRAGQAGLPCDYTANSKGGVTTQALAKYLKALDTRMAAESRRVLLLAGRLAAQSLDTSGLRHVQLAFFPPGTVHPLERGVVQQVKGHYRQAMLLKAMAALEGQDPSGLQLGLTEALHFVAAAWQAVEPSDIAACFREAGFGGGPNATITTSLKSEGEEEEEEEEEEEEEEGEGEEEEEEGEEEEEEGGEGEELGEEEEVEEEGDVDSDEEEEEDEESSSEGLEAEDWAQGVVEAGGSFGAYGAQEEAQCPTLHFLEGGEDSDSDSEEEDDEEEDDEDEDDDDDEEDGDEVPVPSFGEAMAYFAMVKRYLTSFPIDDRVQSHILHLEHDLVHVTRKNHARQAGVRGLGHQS
In short: (§1)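 Data come from three independent experiments in which Dounce-homogenised Jurkat crude lysate was treated at eight concentrations from 0.1 to 10 mM. Treatment ran 10 min at room temperature and then 3 min at 37 °C, after which 0.8% NP40 and benzonase were added for 60 min at 4 °C before ultracentrifugation. The supernatant underwent TMT labelling and LC-MS/MS, and vsn-normalised intensities were expressed as fold change against the detergent-processed vehicle in each replicate.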

CSTB = biological target: T2, CSTB (UniProt P04080)
T2 sequence (whole entry): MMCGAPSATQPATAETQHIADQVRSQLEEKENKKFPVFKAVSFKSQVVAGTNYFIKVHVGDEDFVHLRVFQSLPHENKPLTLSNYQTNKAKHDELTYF
In short: as §1

CYBA = biological target: T3, CYBA (UniProt P13498)
T3 sequence (whole entry): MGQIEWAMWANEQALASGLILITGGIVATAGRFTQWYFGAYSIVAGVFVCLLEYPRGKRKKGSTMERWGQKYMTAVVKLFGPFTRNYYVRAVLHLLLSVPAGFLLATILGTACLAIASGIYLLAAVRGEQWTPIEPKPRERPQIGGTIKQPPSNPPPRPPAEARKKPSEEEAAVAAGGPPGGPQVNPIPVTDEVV
In short: as §1

GLA = biological target: T4, GLA (UniProt P06280)
T4 sequence (whole entry): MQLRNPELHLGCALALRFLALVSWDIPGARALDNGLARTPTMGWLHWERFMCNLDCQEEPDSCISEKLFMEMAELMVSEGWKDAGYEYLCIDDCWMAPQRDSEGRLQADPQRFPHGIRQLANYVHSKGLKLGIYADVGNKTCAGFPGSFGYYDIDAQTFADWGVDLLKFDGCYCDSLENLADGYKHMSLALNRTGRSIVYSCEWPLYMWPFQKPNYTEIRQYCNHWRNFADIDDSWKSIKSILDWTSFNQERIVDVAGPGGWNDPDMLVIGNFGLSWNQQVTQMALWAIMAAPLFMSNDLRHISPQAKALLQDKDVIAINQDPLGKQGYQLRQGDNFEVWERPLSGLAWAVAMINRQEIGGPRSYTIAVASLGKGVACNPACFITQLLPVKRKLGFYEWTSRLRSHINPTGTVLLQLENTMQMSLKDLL
In short: as §1

LTA4H = biological target: T5, LTA4H (UniProt P09960)
T5 sequence (whole entry): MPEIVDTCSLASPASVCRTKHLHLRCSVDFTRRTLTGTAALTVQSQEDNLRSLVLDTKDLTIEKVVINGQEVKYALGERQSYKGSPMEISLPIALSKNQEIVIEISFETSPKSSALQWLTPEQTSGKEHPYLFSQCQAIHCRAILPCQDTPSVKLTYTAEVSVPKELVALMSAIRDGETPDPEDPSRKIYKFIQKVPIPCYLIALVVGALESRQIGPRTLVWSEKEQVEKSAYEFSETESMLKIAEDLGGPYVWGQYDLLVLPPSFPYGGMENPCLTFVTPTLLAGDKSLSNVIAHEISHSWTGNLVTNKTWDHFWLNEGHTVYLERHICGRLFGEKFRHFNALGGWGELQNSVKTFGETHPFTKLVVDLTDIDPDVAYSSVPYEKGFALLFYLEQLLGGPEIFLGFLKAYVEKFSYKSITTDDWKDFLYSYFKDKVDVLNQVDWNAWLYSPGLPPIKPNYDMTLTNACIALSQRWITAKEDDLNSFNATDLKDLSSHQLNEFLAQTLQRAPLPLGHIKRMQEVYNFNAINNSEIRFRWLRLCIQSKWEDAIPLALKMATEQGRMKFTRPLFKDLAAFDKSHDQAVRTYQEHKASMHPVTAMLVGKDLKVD
In short: as §1

PTTG1 = biological target: T6, PTTG1 (UniProt O95997)
T6 sequence (whole entry): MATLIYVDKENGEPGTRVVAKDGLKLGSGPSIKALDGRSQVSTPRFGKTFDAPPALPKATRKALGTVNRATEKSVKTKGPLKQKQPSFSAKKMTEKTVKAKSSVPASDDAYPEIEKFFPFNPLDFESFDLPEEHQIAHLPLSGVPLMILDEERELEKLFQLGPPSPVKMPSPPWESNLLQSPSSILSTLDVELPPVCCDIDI
In short: as §1

[1] = biological target: T7, UniProt P02545 and related entries
T7 sequence (whole entry): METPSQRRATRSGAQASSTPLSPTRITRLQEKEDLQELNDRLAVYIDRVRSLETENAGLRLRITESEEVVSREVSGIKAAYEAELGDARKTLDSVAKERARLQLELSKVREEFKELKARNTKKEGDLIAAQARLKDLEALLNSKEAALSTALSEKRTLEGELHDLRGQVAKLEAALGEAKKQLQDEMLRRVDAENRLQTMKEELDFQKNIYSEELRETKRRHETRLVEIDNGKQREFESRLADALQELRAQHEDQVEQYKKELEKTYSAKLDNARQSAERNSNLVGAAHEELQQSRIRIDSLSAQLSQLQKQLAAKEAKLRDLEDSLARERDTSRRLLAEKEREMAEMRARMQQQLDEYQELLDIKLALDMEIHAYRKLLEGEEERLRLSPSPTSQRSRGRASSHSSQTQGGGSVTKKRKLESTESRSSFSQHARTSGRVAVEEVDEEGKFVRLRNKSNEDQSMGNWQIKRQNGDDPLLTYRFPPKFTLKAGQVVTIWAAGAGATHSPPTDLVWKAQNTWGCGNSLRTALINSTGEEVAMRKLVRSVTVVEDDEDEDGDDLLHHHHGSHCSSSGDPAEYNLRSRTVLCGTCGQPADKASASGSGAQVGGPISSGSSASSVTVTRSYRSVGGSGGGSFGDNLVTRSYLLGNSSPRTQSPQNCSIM
In short: as §1

[2] = biological target: T8, UniProt P04083 and related entries
T8 sequence (whole entry): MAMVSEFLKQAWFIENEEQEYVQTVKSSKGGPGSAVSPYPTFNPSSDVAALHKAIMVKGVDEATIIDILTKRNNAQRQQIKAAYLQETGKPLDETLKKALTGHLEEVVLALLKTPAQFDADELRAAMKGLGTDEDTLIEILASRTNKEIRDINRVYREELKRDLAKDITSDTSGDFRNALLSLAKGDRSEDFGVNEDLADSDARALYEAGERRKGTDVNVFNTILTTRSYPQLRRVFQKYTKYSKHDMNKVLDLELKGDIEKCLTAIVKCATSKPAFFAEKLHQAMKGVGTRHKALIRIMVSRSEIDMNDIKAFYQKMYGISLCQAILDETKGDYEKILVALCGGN
In short: as §1

UniProt P10914 = biological target: T9, UniProt P10914
T9 sequence (whole entry): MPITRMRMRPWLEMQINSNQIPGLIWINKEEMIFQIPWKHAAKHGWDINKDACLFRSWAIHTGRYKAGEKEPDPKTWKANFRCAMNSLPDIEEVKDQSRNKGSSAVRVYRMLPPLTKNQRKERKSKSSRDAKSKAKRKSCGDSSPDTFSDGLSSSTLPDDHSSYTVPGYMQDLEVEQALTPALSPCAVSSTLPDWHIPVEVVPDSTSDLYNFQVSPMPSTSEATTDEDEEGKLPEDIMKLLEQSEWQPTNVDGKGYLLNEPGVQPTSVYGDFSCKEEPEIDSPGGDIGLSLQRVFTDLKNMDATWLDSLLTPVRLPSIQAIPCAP
In short: as §1

Compound Nc1ncnc2c1ncn2[C@@H]1O[C@H](COP(=O)(O)OP(=O)(O)OP(=O)(O)O)[C@@H](O)[C@H]1O [adenosine triphosphate] has an NP40-soluble protein abundance (CENPB; concentration: 1mM) of 1.07 ± 0.1, an NP40-soluble protein abundance (CENPB; concentration: 2mM) of 1.1 ± 0.058 and an NP40-soluble protein abundance (CENPB; concentration: 4mM) of 1.09 ± 0.07. It also gave an NP40-soluble protein abundance (CENPB; concentration: 6mM) of 1.1 ± 0.089, an NP40-soluble protein abundance (CENPB; concentration: 8mM) of 1.06 ± 0.083 and an NP40-soluble protein abundance (CENPB; concentration: 10mM) of 1.05 ± 0.027. The NP40-soluble protein abundance (CSTB; concentration: 1mM) was 0.933 ± 0.028, the NP40-soluble protein abundance (CSTB; concentration: 2mM) was 0.9112 ± 0.0042 and the NP40-soluble protein abundance (CSTB; concentration: 4mM) was 0.887 ± 0.037. The NP40-soluble protein abundance (CSTB; concentration: 6mM) was 0.889 ± 0.023, the NP40-soluble protein abundance (CSTB; concentration: 8mM) was 0.901 ± 0.015 and the NP40-soluble protein abundance (CSTB; concentration: 10mM) was 0.877 ± 0.013. It also gave an NP40-soluble protein abundance (CYBA; concentration: 1mM) of 1.02 ± 0.058, an NP40-soluble protein abundance (CYBA; concentration: 2mM) of 0.992 ± 0.07 and an NP40-soluble protein abundance (CYBA; concentration: 4mM) of 0.965 ± 0.06. It also gave an NP40-soluble protein abundance (CYBA; concentration: 6mM) of 1.03 ± 0.075, an NP40-soluble protein abundance (CYBA; concentration: 8mM) of 0.942 ± 0.038 and an NP40-soluble protein abundance (CYBA; concentration: 10mM) of 0.944 ± 0.037. For the same compound, the NP40-soluble protein abundance (GLA; concentration: 1mM) was 0.92 ± 0.01, the NP40-soluble protein abundance (GLA; concentration: 2mM) was 0.968 ± 0.044 and the NP40-soluble protein abundance (GLA; concentration: 4mM) was 0.95 ± 0.022. It also gave an NP40-soluble protein abundance (GLA; concentration: 6mM) of 0.936 ± 0.035, an NP40-soluble protein abundance (GLA; concentration: 8mM) of 0.9165 ± 0.006 and an NP40-soluble protein abundance (GLA; concentration: 10mM) of 0.96 ± 0.061. It also gave an NP40-soluble protein abundance (LTA4H; concentration: 1mM) of 0.992 ± 0.093, an NP40-soluble protein abundance (LTA4H; concentration: 2mM) of 0.983 ± 0.079 and an NP40-soluble protein abundance (LTA4H; concentration: 4mM) of 0.949 ± 0.064. For the same compound, the NP40-soluble protein abundance (LTA4H; concentration: 6mM) was 0.924 ± 0.13, the NP40-soluble protein abundance (LTA4H; concentration: 8mM) was 0.957 ± 0.036 and the NP40-soluble protein abundance (LTA4H; concentration: 10mM) was 0.952 ± 0.063. It also gave an NP40-soluble protein abundance (PTTG1; concentration: 1mM) of 0.957 ± 0.086, an NP40-soluble protein abundance (PTTG1; concentration: 2mM) of 0.883 ± 0.034 and an NP40-soluble protein abundance (PTTG1; concentration: 4mM) of 0.888 ± 0.021. The NP40-soluble protein abundance (PTTG1; concentration: 6mM) was 0.943 ± 0.068, the NP40-soluble protein abundance (PTTG1; concentration: 8mM) was 0.855 ± 0.052 and the NP40-soluble protein abundance (PTTG1; concentration: 10mM) was 0.873 ± 0.048. The NP40-soluble protein abundance ([1]; concentration: 1mM) was 1.13 ± 0.13, the NP40-soluble protein abundance ([1]; concentration: 2mM) was 1.11 ± 0.055 and the NP40-soluble protein abundance ([1]; concentration: 4mM) was 1.15 ± 0.16. It also gave an NP40-soluble protein abundance ([1]; concentration: 6mM) of 1.16 ± 0.22, an NP40-soluble protein abundance ([1]; concentration: 8mM) of 1.09 ± 0.09 and an NP40-soluble protein abundance ([1]; concentration: 10mM) of 1.2 ± 0.15. It also gave an NP40-soluble protein abundance ([2]; concentration: 1mM) of 0.913 ± 0.042, an NP40-soluble protein abundance ([2]; concentration: 2mM) of 0.928 ± 0.015 and an NP40-soluble protein abundance ([2]; concentration: 4mM) of 0.923 ± 0.019. It also gave an NP40-soluble protein abundance ([2]; concentration: 6mM) of 0.9188 ± 0.0059, an NP40-soluble protein abundance ([2]; concentration: 8mM) of 0.912 ± 0.019 and an NP40-soluble protein abundance ([2]; concentration: 10mM) of 0.868 ± 0.068. For the same compound, the NP40-soluble protein abundance (UniProt P10914; concentration: 1mM) was 0.831 ± 0.19, the NP40-soluble protein abundance (UniProt P10914; concentration: 2mM) was 0.972 ± 0.12 and the NP40-soluble protein abundance (UniProt P10914; concentration: 4mM) was 0.886 ± 0.043. For the same compound, the NP40-soluble protein abundance (UniProt P10914; concentration: 6mM) was 0.869 ± 0.097, the NP40-soluble protein abundance (UniProt P10914; concentration: 8mM) was 0.913 ± 0.053 and the NP40-soluble protein abundance (UniProt P10914; concentration: 10mM) was 0.921 ± 0.13.
